Measured values: paper PMC7353009, “Identification of Substrates of Cytoplasmic Peptidyl-Prolyl Cis/Trans Isomerases and Their Collective Essentiality in Escherichia Coli” (International Journal of Molecular Sciences, 2020)
No constants are given. Whether binding was seen depends on the method and setting. Binding seen in cells or lysates may run through a third protein. Some results given as binding are weak or reduced against the parent protein; the word gives no strength. Sequences can lack the tags named with a protein.

Protein sequences, listed by entry. Tags and fused reporters are not part of them.
UniProt P0A7Z4: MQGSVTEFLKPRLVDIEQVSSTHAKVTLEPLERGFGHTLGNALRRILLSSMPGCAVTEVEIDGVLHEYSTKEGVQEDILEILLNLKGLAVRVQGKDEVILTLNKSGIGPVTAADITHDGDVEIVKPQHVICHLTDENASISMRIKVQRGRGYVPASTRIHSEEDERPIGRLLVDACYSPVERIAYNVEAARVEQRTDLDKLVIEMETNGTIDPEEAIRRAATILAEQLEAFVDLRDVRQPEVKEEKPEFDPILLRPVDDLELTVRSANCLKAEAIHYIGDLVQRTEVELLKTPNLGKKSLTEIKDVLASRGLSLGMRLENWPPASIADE
UniProt P0AFG0: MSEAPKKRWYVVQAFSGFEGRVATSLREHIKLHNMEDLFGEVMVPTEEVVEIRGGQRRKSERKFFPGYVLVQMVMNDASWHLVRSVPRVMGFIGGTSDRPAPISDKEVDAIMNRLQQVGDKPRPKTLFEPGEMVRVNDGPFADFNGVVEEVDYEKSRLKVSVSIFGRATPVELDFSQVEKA

T1: PpiC::3xFLAG (wild type, chromosomal) (E. coli) (UniProt P0A9L5)
T1 sequence: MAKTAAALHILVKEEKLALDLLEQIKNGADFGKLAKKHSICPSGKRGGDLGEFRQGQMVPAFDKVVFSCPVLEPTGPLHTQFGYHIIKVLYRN

B1: alkyl hydroperoxide reductase subunit C (AhpC) (protein, UniProt P0AE08 1-187)
chain: MSLINTKIKPFKNQAFKNGEFIEITEKDTEGRWSVFFFYPADFTFVCPTELGDVADHYEELQKLGVDVYAVSTDTHFTHKAWHSSSETIAKIKYAMIGDPTGALTRNFDNMREDEGLADRATFVVDPQGIIQAIEVTAEGIGRDASDLLRKIKAAQYVASHPGEVCPAKWKEGEATLAPSLDLVGKI
B2: YrdA (protein, UniProt P0A9W9 1-184)
chain: MSDVLRPYRDLFPQIGQRVMIDDSSVVIGDVRLADDVGIWPLVVIRGDVHYVQIGARTNIQDGSMLHVTHKSSYNPDGNPLTIGEDVTVGHKVMLHGCTIGNRVLVGMGSILLDGAIVEDDVMIGAGSLVPQNKRLESGYLYLGSPVKQIRPLSDEEKAGLRYSANNYVKWKDEYLDQGNQTQP
B3: SeqA (protein, UniProt P0AFY8 1-181)
chain: MKTIEVDDELYSYIASHTKHIGESASDILRRMLKFSAASQPAAPVTKEVRVASPAIVEAKPVKTIKDKVRAMRELLLSDEYAEQKRAVNRFMLLLSTLYSLDAQAFAEATESLHGRTRVYFAADEQTLLKNGNQTKPKHVPGTPYWVITNTNTGRKCSMIEHIMQSMQFPAELIEKVCGTI

Each molecule was assayed against T1, PpiC::3xFLAG (wild type, chromosomal) (E. coli) (assay: co-IP; cell extracts of strains with chromosomal single-copy 3xFLAG-tagged PpiC, ANTI-FLAG M2 gel, 12 h at 4 °C, native elution with 3xFLAG peptide, SDS-PAGE and silver staining).

binding, binds:
RpoA (from UniProt P0A7Z4 1-329), NusG (from UniProt P0AFG0 1-181), B1, B2, B3
